Data reported in PubChem BioAssay AID248 (DTP/NCI, 2004).
The list does not hold the whole screen: it gathers tests that were run many times, whatever their T/C, doses with no T/C, and many T/C values between a quarter and a half above the control. Other doses and runs of a compound stand elsewhere. T/C is the treated group as % of the vehicle group. Some doses have a count of surviving animals in place of a T/C: the source files T/C as zero there, which appears to mark a toxic dose or a test without result, not a measured value. Some survivor counts are full or nearly so, which does not show that the dose was tolerated: the source hardly ever lists a survival T/C far under the control, and the zero likely stands for such cases as well. Counts of survivors are from the toxicity check (mostly the fifth day) where no day follows; animals may have died later. Schedule codes are those of the source, read here as Q, the interval in days (D) or hours (H), X, the number of doses. Some entries were tested several times; the values are given in rising order. Some schedule codes hold Z or #, which are not explained here. For survival time, this PubChem deposit counts one and a half times the control or more as active, and values a quarter to a half above the control carry no call in these data; other NCI protocols may use other cut-offs. Some T/C values carry the count of animals alive at the toxicity check (mostly the fifth day); without a count, all were alive then.

Test system: L1210 leukemia ip in BDF1 mice, survival T/C
Assay: NCI In Vivo Anticancer Drug Screen. Data for tumor model L1210 Leukemia (intraperitoneal) in B6D2F1 (BDF1) mice
Details: T/C endpoint: mean survival time, higher T/C = longer survival
[1] = dose: 35.0 mg/kg/injection, schedule: Q01DX015 (ip), vehicle: saline
[2] = dose: 50.0 mg/kg/injection, schedule: Q04DX003 (ip), vehicle: saline
[3] = dose: 52.5 mg/kg/injection, schedule: Q01DX015 (ip), vehicle: saline

For `O[C@H](CN1CC1)[C@@H](O)CN1CC1`, the T/C (dose: 0.1 mg/kg/injection, schedule: Q01DX010 (oral), vehicle: other) was 127 % of control, the T/C (dose: 0.2 mg/kg/injection, schedule: Q01DX010 (oral), vehicle: saline) was 142 % of control and the survivor count (dose: 0.25 mg/kg/injection, schedule: Q01DX Z (ip), vehicle: methylcellulose (MC)) was 9 of 10. For the same compound, the T/C (dose: 0.29 mg/kg/injection, schedule: Q01DX Z (oral), vehicle: saline) was 139 % of control, the T/C (dose: 0.4 mg/kg/injection, schedule: Q01DX010 (oral), vehicle: other) was 142 % of control and the survivor count (dose: 0.5 mg/kg/injection, schedule: Q01DX Z (ip), vehicle: methylcellulose (MC)) was 0 of 10. For the same compound, the survivor count (dose: 1.0 mg/kg/injection, schedule: Q01DX Z (ip), vehicle: methylcellulose (MC)) was 0 of 10, the T/C (dose: 1.0 mg/kg/injection, schedule: Q01DX Z (oral), vehicle: saline) was 132 % of control and the survivor count (dose: 1.6 mg/kg/injection, schedule: Q01DX010 (oral), vehicle: other) was 5 of 6. The survivor count (dose: 1.6 mg/kg/injection, schedule: Q01DX010 (oral), vehicle: saline) was 6 of 6, the survivor count (dose: 2.25 mg/kg/injection, schedule: Q01DX Z (oral), vehicle: saline) was 6 of 6 and the survivor count (dose: 3.0 mg/kg/injection, schedule: Q01DX Z (oral), vehicle: saline) was 6 of 6. The survivor count (dose: 3.37 mg/kg/injection, schedule: Q01DX Z (oral), vehicle: saline) was 6 of 6, the T/C (dose: 5.0 mg/kg/injection, schedule: Q01DX Z (ip), vehicle: methylcellulose (MC)) was 141 % of control and the survivor count (dose: 5.06 mg/kg/injection, schedule: Q01DX Z (oral), vehicle: saline) was 6 of 6. For the same compound, the survivor count (dose: 6.0 mg/kg/injection, schedule: Q01DX Z (oral), vehicle: saline) was 5 of 6, the survivor count (dose: 8.9 mg/kg/injection, schedule: Q01DX Z (oral), vehicle: saline) was 3 of 6 and the survivor count (dose: 10.0 mg/kg/injection, schedule: Q01DX Z (ip), vehicle: methylcellulose (MC)) was 1 of 10. For the same compound, the survivor count (dose: 13.3 mg/kg/injection, schedule: Q01DX Z (oral), vehicle: saline) was 0 of 6, the survivor count (dose: 16.0 mg/kg/injection, schedule: Q01DX Z (ip), vehicle: methylcellulose (MC)) was 0 of 6 and the survivor count (dose: 20.0 mg/kg/injection, schedule: Q01DX Z (ip), vehicle: methylcellulose (MC)) was 1 of 10. For the same compound, the survivor count (dose: 20.0 mg/kg/injection, schedule: Q01DX Z (oral), vehicle: saline) was 0 of 6, the survivor count (dose: 25.0 mg/kg/injection, schedule: Q01DX Z (ip), vehicle: methylcellulose (MC)) was 0 of 6 and the survivor count (dose: 30.0 mg/kg/injection, schedule: Q01DX Z (oral), vehicle: saline) was 0 of 6. The survivor count (dose: 37.5 mg/kg/injection, schedule: Q01DX Z (ip), vehicle: methylcellulose (MC)) was 0 of 6.
With `Cc1cc(=O)[nH]c2c1C(=O)c1c(C)cc(=O)n(C)c1C2=O` the survivor count (dose: 6.0 mg/kg/injection, schedule: Q01DX009 (ip), vehicle: Klucel (hydroxypropylcellulose) (HPC)) was 0 of 6, the survivor count (dose: 6.0 mg/kg/injection, schedule: Q04DX003 (ip), vehicle: Klucel (hydroxypropylcellulose) (HPC)) was 5 of 6 and the survivor count (dose: 12.0 mg/kg/injection, schedule: Q01DX009 (ip), vehicle: Klucel (hydroxypropylcellulose) (HPC)) was 0 of 6. The survivor count (dose: 12.0 mg/kg/injection, schedule: Q04DX003 (ip), vehicle: Klucel (hydroxypropylcellulose) (HPC)) was 1 of 6, the survivor count (dose: 25.0 mg/kg/injection, schedule: Q01DX009 (ip), vehicle: Klucel (hydroxypropylcellulose) (HPC)) was 0 of 6 and the survivor count (dose: 25.0 mg/kg/injection, schedule: Q04DX003 (ip), vehicle: Klucel (hydroxypropylcellulose) (HPC)) was 0 of 6. For the same compound, the survivor count (dose: 50.0 mg/kg/injection, schedule: Q01DX009 (ip), vehicle: Klucel (hydroxypropylcellulose) (HPC)) was 0 of 6, the survivor count (dose: 50.0 mg/kg/injection, schedule: Q04DX003 (ip), vehicle: Klucel (hydroxypropylcellulose) (HPC)) was 0 of 6 and the survivor count (dose: 100.0 mg/kg/injection, schedule: Q04DX003 (ip), vehicle: Klucel (hydroxypropylcellulose) (HPC)) was 0 of 6. For the same compound, the survivor count (dose: 200.0 mg/kg/injection, schedule: Q04DX003 (ip), vehicle: Klucel (hydroxypropylcellulose) (HPC)) was 0 of 6 and the survivor count (dose: 400.0 mg/kg/injection, schedule: Q04DX003 (ip), vehicle: Klucel (hydroxypropylcellulose) (HPC)) was 0 of 6.
For `Clc1nc(Cl)c(CBr)c(Cl)n1`, the survivor count (dose: 32.0 mg/kg/injection, schedule: Q01DX009 (ip), vehicle: carboxymethylcellulose (CMC)) was 0 of 6, the survivor count (dose: 50.0 mg/kg/injection, schedule: Q01DX001 (ip), vehicle: carboxymethylcellulose (CMC)) was 3 of 6 and the survivor count (dose: 64.0 mg/kg/injection, schedule: Q01DX009 (ip), vehicle: carboxymethylcellulose (CMC)) was 0 of 6. The survivor count (dose: 80.0 mg/kg/injection, schedule: Q01DX001 (ip), vehicle: carboxymethylcellulose (CMC)) was 3 of 6, the survivor count (dose: 100.0 mg/kg/injection, schedule: Q01DX001 (ip), vehicle: carboxymethylcellulose (CMC)) was 0 of 6 and the survivor count (dose: 200.0 mg/kg/injection, schedule: Q01DX001 (ip), vehicle: carboxymethylcellulose (CMC)) was 0 of 6. The survivor count (dose: 400.0 mg/kg/injection, schedule: Q01DX001 (ip), vehicle: carboxymethylcellulose (CMC)) was 0 of 6.
With `CC1=CC(C)(C)NC(=S)N1c1ccccc1` the survivor count (dose: 100.0 mg/kg/injection, schedule: Q01DX009 (ip), vehicle: Klucel (hydroxypropylcellulose) (HPC)) was 6 of 6.
With `Nc1nnnc2c1ncn2C1CCCC1` the survivor count (dose: 150.0 mg/kg/injection, schedule: Q01DX001 (ip), vehicle: other) was 0 of 6 and the survivor count (dose: 300.0 mg/kg/injection, schedule: Q01DX001 (ip), vehicle: other) was 0 of 6.
With `OCc1cc(Cl)ccc1O` the survivor count (dose: 400.0 mg/kg/injection, schedule: Q01DX009 (ip), vehicle: other) was 0 of 6.
With `Cc1ccc(N2CCN(C3=CCC(C(C)C)CC3)CC2)cc1Cl` (stereo not given) the survivor count (dose: 200.0 mg/kg/injection, schedule: Q01DX009 (ip), vehicle: saline with Tween-80) was 3 of 6 and the survivor count (dose: 400.0 mg/kg/injection, schedule: Q01DX009 (ip), vehicle: saline with Tween-80) was 0 of 6.
For `Nc1nc2ncc(CCNc3ccc(C(=O)NC(CCC(=O)O)C(=O)O)cc3)nc2c(=O)[nH]1` (stereo not given), the survivor count (dose: 150.0 mg/kg/injection, schedule: Q01DX Z (ip), vehicle: other) was 0 of 8.
With `CCCCN(CCCC)C(=O)c1ccccc1C(=O)O` the survivor count (dose: 400.0 mg/kg/injection, schedule: Q04DX002 (ip), vehicle: Klucel (hydroxypropylcellulose) (HPC)) was 0 of 3.
For `OCCOCCN1CCN(CC/C=C2\c3ccccc3Sc3ccc(C(F)(F)F)cc32)CC1`, the T/C (dose: 12.0 mg/kg/injection, schedule: Q04DX003 (ip), vehicle: saline with Tween-80) was 136 % of control, the survivor count (dose: 12.5 mg/kg/injection, schedule: Q04DX003 (ip), vehicle: saline) was 2 of 6 and the T/C (dose: 15.5 mg/kg/injection, schedule: Q01DX015 (ip), vehicle: saline) was 91, 101, 113 [5 of 6 alive], 147 % of control. For the same compound, the T/C (dose: 18.0 mg/kg/injection, schedule: Q04DX003 (ip), vehicle: saline with Tween-80) was 132 % of control, the survivor count (dose: 23.3 mg/kg/injection, schedule: Q01DX015 (ip), vehicle: saline) was 4 of 6 and the survivor count (dose: 25.0 mg/kg/injection, schedule: Q04DX003 (ip), vehicle: saline) was 0 of 6. For the same compound, the T/C [1] was 143 % of control, the survivor count [1] was 5 of 6 and 6 of 6 and the T/C [2] was 142 % of control. For the same compound, the survivor count [2] was 0 of 6, the T/C [3] was 127 % of control and the survivor count [3] was 3 of 6 and 4 of 6. The survivor count (dose: 80.0 mg/kg/injection, schedule: Q01DX009 (ip), vehicle: saline) was 0 of 6, the T/C (dose: 100.0 mg/kg/injection, schedule: Q01DX001 (ip), vehicle: saline) was 125 % of control and the survivor count (dose: 100.0 mg/kg/injection, schedule: Q04DX003 (ip), vehicle: saline) was 0 of 6. The survivor count (dose: 105.0 mg/kg/injection, schedule: Q01DX015 (ip), vehicle: saline) was 5 of 6, the survivor count (dose: 200.0 mg/kg/injection, schedule: Q01DX001 (ip), vehicle: saline) was 0 of 4 and 0 of 6 and the survivor count (dose: 200.0 mg/kg/injection, schedule: Q04DX003 (ip), vehicle: saline) was 1 of 6. The survivor count (dose: 400.0 mg/kg/injection, schedule: Q01DX001 (ip), vehicle: saline) was 0 of 4 and 0 of 6.
